Patent publication US20040009147A1
These are yes or no findings as the source states them, for the method shown. Some entries that bind do so weakly or less than the wild type. Where a sequence is shown, tags or fusion partners need not be part of it.

By UniProt entry, the sequences of proteins in these tests, tags left out. Where a name states a change or a piece, a line headed by the entry shows the natural chain unless it says otherwise. Residues count along the entry.
UniProt P48023, residues 103-281: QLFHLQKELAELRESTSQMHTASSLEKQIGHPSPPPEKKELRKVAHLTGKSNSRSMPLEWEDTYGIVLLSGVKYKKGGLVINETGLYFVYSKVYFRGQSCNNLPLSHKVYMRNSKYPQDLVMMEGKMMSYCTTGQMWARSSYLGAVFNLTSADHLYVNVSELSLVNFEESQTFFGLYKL
UniProt O43557: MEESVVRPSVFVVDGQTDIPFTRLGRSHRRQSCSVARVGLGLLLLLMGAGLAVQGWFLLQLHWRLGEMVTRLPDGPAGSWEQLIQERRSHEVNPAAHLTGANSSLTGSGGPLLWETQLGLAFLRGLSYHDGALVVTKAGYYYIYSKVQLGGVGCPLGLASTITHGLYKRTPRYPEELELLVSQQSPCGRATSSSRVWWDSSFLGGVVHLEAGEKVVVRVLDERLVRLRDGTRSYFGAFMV

Assays:
[1] = target: FasL-Flag (Flag-tagged soluble FasL) (UniProt P48023); experiment: summary sentence of Example 13
[2] = target: Flag-tagged soluble AIM II protein (sAIM II), amino acids 74-240 of AIM II (human) (UniProt O43557); experiment: summary sentence of Example 13
[3] = target: Flag-tagged soluble AIM II protein (sAIM II), amino acids 74-240 of AIM II (human) (UniProt O43557); experiment: immunoprecipitation in the presence of HVEM/TR2-Fc
[4] = target: FasL-Flag (Flag-tagged soluble FasL) (UniProt P48023); experiment: immunoprecipitation with anti-Flag agarose, western blot with anti-poly(His)6
[5] = target: Flag-tagged soluble AIM II protein (sAIM II), amino acids 74-240 of AIM II (human) (UniProt O43557); experiment: as above

Measured: binding

B1: TR6-(His), recombinant TR6 (DcR3) with hexa-histidine at the C-terminus (receptor)
chain: VAETPTYPWRDAETGERLVCAQCPPGTFVQRPCRRDSPTTCGPCPPRHYTQFWNYLERCRYCNVLCGEREEEARACHATHNRACRCRTGFFAHAGFCLEHASCPPGAGVIAPGTPSQNTQCQPCPPGTFSASSSSSEQCQPHRNCTALGLALNVPGSSSHDTLCTSCTGFPLSTRVPGAEECERAVIDFVAFQDISIKRLQRLLQALEAPEGWGPTPRAGRAALQLKLRRRLTELLGAQDGALLVRLLQALRVARMPGLERSVRERFLPVHHHHHHH
binds: all assays above
